From PubChem BioAssay AID2417 (National Center for Advancing Translational Sciences (NCATS), 2010)
Out of some 140,000 compounds screened, about 4,300 (3.1%) were called active. The inconclusive results got no clear call from the source; some entries with a clear call stand among them for comparison.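 The calls were made as follows: active = readout at or below -70, meaning at least 70% loss of cells showing the perinucleolar compartment, a nuclear body marking cancer cells; inconclusive = readout between -30 and a set limit; inactive = the rest.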

Assay: High Content Assay for Compounds that inhibit the Assembly of the Perinucleolar Compartment;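 also: plate controls were DMSO wells for no effect and camptothecin positive control wells for full effect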
Settings: PC3M PTB-GFP, PNC prevalence imaging, 16 h; at 10 µM; stronger effect = lower value
Procedure, shortened: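 Compounds are pinned in duplicate onto adhered PC3M cells stably expressing GFP-tagged PTB and incubated 16 h at 37 C. Cells are then fixed, nuclei stained with Hoechst, and PNC-positive cells counted.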
For `O=C(CN1CCN(C(=O)c2ccco2)CC1)Nc1ccc2c(c1)OCCO2`, the activity change (PNC), negative = inhibition was inactive: 10.1%.
With `CCOC(=O)c1ccc(CNC(=O)C2CCCCC2C(=O)OCC(F)(F)F)o1` (stereo unspecified) the activity change (PNC), negative = inhibition was inactive: 59.1%.
With `Cc1cc(C)cc(OC(=O)N2CCOCC2)c1` the activity change (PNC), negative = inhibition was inactive: -18.1%.
In the case of `CCOc1ccc(-n2c(SCC(=O)NC(C)CC)nc3n[nH]c(C)c3c2=N)cc1` (stereo unspecified), the activity change (PNC), negative = inhibition is reported as inconclusive: -62.2%.
For `Cc1oc2c(O)c(O)ccc2c(=O)c1-c1cnn(-c2ccccc2)c1`, the activity change (PNC), negative = inhibition was inconclusive: -30.1%.
For `O=C(Nc1sccc1C(=O)N1CCOCC1)c1cccnc1`, the activity change (PNC), negative = inhibition was inconclusive: -35.2%.
For `O=C(COc1ncnc2c(Cl)cc(Cl)cc12)N1CCCCC1`, the activity change (PNC), negative = inhibition was inactive: 11.7%.
In the case of `Cn1c(N)c(C(=O)COC(=O)CSc2ccc3ccccc3c2)c(=O)n(C)c1=O`, the activity change (PNC), negative = inhibition is reported as inconclusive: -33.8%.
For `CCCSC1=N/C(=C/c2ccsc2)C(=O)N1c1ccccc1`, the activity change (PNC), negative = inhibition was inactive: 16.2%.
In the case of `CC(C)OC(=O)CSc1nnc(Cc2ccccc2)n1CC1CCCO1` (stereo unspecified), the activity change (PNC), negative = inhibition is reported as inconclusive: -50.4%.
In the case of `CCn1c(SCc2cccc(C)c2)nnc1-c1ccc(C)cc1`, the activity change (PNC), negative = inhibition is reported as inconclusive: -37.4%.
With `O=C(CCc1nc(-c2ccccc2F)no1)NC1CCCCCC1` the activity change (PNC), negative = inhibition was inconclusive: -38.3%.
In the case of `COc1ccc(/C=N/Nc2nc(C)c([N+](=O)[O-])c(N(C)c3ccccc3)n2)cc1OC`, the activity change (PNC), negative = inhibition is reported as inconclusive: -35.3%.
For `CCC(=O)c1ccc(CCCCCC(=O)O)s1`, the activity change (PNC), negative = inhibition was inactive: -28.3%.
In the case of `CCOC(=O)c1sc(NC(=O)c2ccco2)c(C#N)c1C`, the activity change (PNC), negative = inhibition is reported as inconclusive: -52%.
In the case of `Cn1c(=O)c2cc(NC(=O)c3ccccc3Cl)c(=O)oc2n(C)c1=O`, the activity change (PNC), negative = inhibition is reported as inconclusive: -44.3%.
In the case of `CCN(CC)S(=O)(=O)c1ccc(N=NC2=C(O)CCCC2=O)cc1`, the activity change (PNC), negative = inhibition is reported as inconclusive: -33.6%.
With `O=C1CCCc2nc(NCc3ccco3)ncc21` the activity change (PNC), negative = inhibition was inconclusive: -34.5%.
With `CCCOC(=O)Nc1ccc(C(N)=O)cc1` the activity change (PNC), negative = inhibition was inconclusive: -43.9%.
In the case of `O=C(NC(Cc1ccccc1)C(=O)O)/C(=C/c1ccc(F)cc1)NC(=O)c1ccccc1` (stereo unspecified), the activity change (PNC), negative = inhibition is reported as inactive: -14%.
With `CC1(C)CC(n2c(=S)[nH]c3ccccc3c2=O)CCO1` (stereo unspecified) the activity change (PNC), negative = inhibition was inconclusive: -34.2%.
For `c1cncc(-c2nc(NCC3COc4ccccc4O3)c3ccccc3n2)c1` (stereo unspecified), the activity change (PNC), negative = inhibition was inconclusive: -36.4%.
For `O=C(O)CSc1nnc(C2CC2)n1-c1ccccc1`, the activity change (PNC), negative = inhibition was inconclusive: -61.9%.
In the case of `Cc1nn(-c2ccc(C(=O)Nc3nnc(C4CC4)s3)cc2)c(C)c1Cl`, the activity change (PNC), negative = inhibition is reported as inconclusive: -47.8%.
In the case of `Cc1cccc(OCc2nnc(SCC(=O)Nc3cccc(C(=O)N4CCOCC4)c3)n2C)c1`, the activity change (PNC), negative = inhibition is reported as inactive: 10.6%.
For `COc1ccc(-c2ccc(C(=S)N3CCN(C(C)=O)CC3)o2)cc1`, the activity change (PNC), negative = inhibition was inconclusive: -41.1%.
With `Cn1c(=O)[nH]c(=O)c2c1nc(Br)n2Cc1ccccc1Cl` the activity change (PNC), negative = inhibition was inactive: -18.6%.
In the case of `CCOc1ccc(/C=N/NC(=O)Cc2csc(Nc3cccc(C(F)(F)F)c3)n2)cc1`, the activity change (PNC), negative = inhibition is reported as inconclusive: -40.2%.
For `CC(=O)c1c(C)n(-c2ccccc2)c2ccc(O)cc12`, the activity change (PNC), negative = inhibition was inactive: 5.98%.
With `O=C(NCC1CCCO1)/C(=C\c1ccc(Cl)cc1)NC(=O)c1ccccc1` (stereo unspecified) the activity change (PNC), negative = inhibition was inconclusive: -43.6%.
In the case of `Cn1c(N)c(C(=O)COC(=O)c2ccnc3ccccc23)c(=O)n(C)c1=O`, the activity change (PNC), negative = inhibition is reported as active: -84.9%.
For `COc1ccc(C(=O)N[C@H](C(=O)OCC(=O)NC(=O)c2cccn2C)C(C)C)cc1`, the activity change (PNC), negative = inhibition was inactive: -20.7%.
For `COc1ccc(OC)c(S(=O)(=O)N2CCC(C(=O)NCCC3=CCCCC3)CC2)c1`, the activity change (PNC), negative = inhibition was active: -100%.
For `COCC(C)n1c(C)cc(C(=O)CSc2cc(C)c3ccccc3n2)c1C` (stereo unspecified), the activity change (PNC), negative = inhibition was inactive: -11.6%.
With `Cc1ccc(C(=O)NCC(=O)NCC(=O)OCC(=O)c2cccs2)cc1` the activity change (PNC), negative = inhibition was inactive: -15.7%.
In the case of `O=C(CSc1nc2c([nH]c3ccccc32)c(=O)n1-c1cccc(Cl)c1)N1CCOCC1`, the activity change (PNC), negative = inhibition is reported as inactive: 39%.
In the case of `Cc1ccc(Cn2cnc3ccccc32)cc1C`, the activity change (PNC), negative = inhibition is reported as inactive: -1.12%.
With `c1ccc2cc3c(NCCN4CCOCC4)ccnc3cc2c1` the activity change (PNC), negative = inhibition was active: -103%.
For `CCC(NC(=O)c1ccccc1NC(=O)c1ccccc1)C(=O)O` (stereo unspecified), the activity change (PNC), negative = inhibition was inconclusive: -50.8%.
For `Cc1ccc(O)c(C(=O)c2cnc3c(c2)c(C)nn3-c2ccccc2)c1`, the activity change (PNC), negative = inhibition was inconclusive: -54.9%.
In the case of `CCOCCCNC(=S)NCCNc1nc2c(C)cccc2cc1C#N`, the activity change (PNC), negative = inhibition is reported as inconclusive: -57.4%.
In the case of `COc1ccc(CC(NC(C)=O)C(=O)NC2CCN(C(=O)Nc3ccc(C#N)cc3)CC2)cc1OC` (stereo unspecified), the activity change (PNC), negative = inhibition is reported as inconclusive: -44.1%.
With `CCCNC(=O)NCCc1ccncc1` the activity change (PNC), negative = inhibition was inconclusive: -50%.
In the case of `CCCS(=O)(=O)N1CCCC(C(=O)N2CCC(Cc3ccccc3)CC2)C1` (stereo unspecified), the activity change (PNC), negative = inhibition is reported as inconclusive: -33.6%.
With `O=C(c1cc(-c2ccc3c(c2)OCO3)on1)N1CCN(c2ccccc2)CC1` the activity change (PNC), negative = inhibition was inactive: -7.78%.
For `CCc1ccc(OCC(=O)Nc2cc(S(=O)(=O)CC)ccc2O)cc1`, the activity change (PNC), negative = inhibition was inconclusive: -33.7%.
